Binding signal data for one sequence are collected here from paper PMC5996148.

By UniProt entry, the sequences of proteins in these tests, tags left out.
UniProt Q92963, whole entry: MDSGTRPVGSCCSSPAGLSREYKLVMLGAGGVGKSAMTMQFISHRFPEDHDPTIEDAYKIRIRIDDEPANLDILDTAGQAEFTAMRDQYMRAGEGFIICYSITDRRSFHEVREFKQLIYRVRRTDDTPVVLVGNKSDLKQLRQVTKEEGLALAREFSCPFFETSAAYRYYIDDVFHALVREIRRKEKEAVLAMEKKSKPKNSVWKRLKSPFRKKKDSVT

Several values for one entry are separate records, joined by “and”; a condition that tells them apart may be missing. Equal values may be shown once. The list shows a part of the results. For some assays here: Construct or isoform of the protein are uncertain.

Test systems include RGS6 (human); RHBDD1 (human); RHBDL2 (human); RHCG (human); RHOA (human); RHOB (human); RIC3 (human); RIPK3 (human); RLBP1 (human); RLBP1L1 (human); RMI1 (human); RNASE11 (human); RNASE8 (human); RNF11 (human); RNF111 (human).
Common to all, as to test: protein microarray (ProtoArray v5.0), streptavidin-Alexa Fluor 647
What all share (details): 3'-biotin; 20 mM Tris (pH 7.5), 5 mM MgCl2, 100 mM KCl, 0.1% Tween-20, A/T-rich and random oligonucleotide blockers; temperature not stated; high values mean tight binding

In test [1] the test system is RING finger and WD repeat domain-containing protein 3 (human).
The test system of test [2] is RING finger protein 122 (human).
A further test has as its target RIT1 (UniProt Q92963).
Test [3] relates to RNA polymerase II-associated protein 3 (human).
Test [4] concerns RNA-binding protein with multiple splicing (human).

With “GGGAGGCTGAGGCAGG [G4-1 biotinylated (PQS2)]”, the binding signal was -0.266 z-score in the test on RGS6 (human); -0.287 z-score with RHBDD1 (human); -0.329 z-score in the test with RHBDL2 (human); -0.343 z-score in the test with RHCG (human); -0.334 z-score in the test with RHOA (human); -0.277 z-score in the test on RHOB (human). Moreover, the binding signal was -0.337 z-score with RIC3 (human); -0.319 z-score and -0.32 z-score in test [1]; -0.356 z-score in [2]; -0.259 z-score in the test with RIPK3 (human); 6 z-score in the test with RIT1; -0.343 z-score with RLBP1 (human). Moreover, the binding signal in the test with RLBP1L1 (human) is -0.355 z-score; in the test on RMI1 (human), -0.277 z-score; in [3] it was 4.7 z-score; in [4] it was -0.317 z-score and -0.347 z-score; in the test on RNASE11 (human), -0.342 z-score; with RNASE8 (human), -0.353 z-score. Besides, the binding signal in the test with RNF11 (human) is -0.35 z-score; with RNF111 (human), -0.322 z-score.
